Results are given in words; binding and its absence hold for the method and conditions named. Some binding calls cover weakened binding; strength is not graded here.
Molecular target: OptoLacI^D2 (LacI^(W220F, 335-LOV2) with K84E) (E. coli | Avena sativa) (UniProt P03023)
Assay: SEC; purified protein incubated 1 hour under blue light, then Superdex 200 Increase 10/300 GL under blue light illumination; 20 mM Hepes pH 7.5, 200 mM NaCl; both purified

Protein sequences, listed by entry. Tags and fused reporters are not part of them. Lines headed by an entry give the natural chain unless they say otherwise; changes in a name come on top.
UniProt P03023: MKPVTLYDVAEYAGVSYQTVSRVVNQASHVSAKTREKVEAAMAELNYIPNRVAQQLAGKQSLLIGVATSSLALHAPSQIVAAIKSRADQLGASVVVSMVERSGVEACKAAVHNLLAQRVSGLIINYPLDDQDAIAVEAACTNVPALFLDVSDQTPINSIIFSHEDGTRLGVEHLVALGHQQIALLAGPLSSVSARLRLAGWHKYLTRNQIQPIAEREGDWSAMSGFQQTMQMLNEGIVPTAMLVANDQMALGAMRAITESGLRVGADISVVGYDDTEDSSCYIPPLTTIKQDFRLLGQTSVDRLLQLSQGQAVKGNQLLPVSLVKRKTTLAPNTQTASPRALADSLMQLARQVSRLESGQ

binding: binds
Substance: OptoLacI^D2 (LacI^(W220F, 335-LOV2) with K84E) (from UniProt P03023 1-335; O49003 408-543; P03023 336-360)
